From paper PMC2829546
Results are given in words; binding and its absence hold for the method and conditions named. Binding seen in cells or lysates may run through a third protein. Some results given as binding are weak or reduced against the parent protein; the word gives no strength.

Chains of the proteins cited; added tags and fusions are not shown. Lines headed by an entry give the natural chain unless they say otherwise; changes in a name come on top. A line that says so, or that is headed by a name, gives the form on record, which may keep a tag or linker. Residues count along the entry.
UniProt P31424, residues 21-1203: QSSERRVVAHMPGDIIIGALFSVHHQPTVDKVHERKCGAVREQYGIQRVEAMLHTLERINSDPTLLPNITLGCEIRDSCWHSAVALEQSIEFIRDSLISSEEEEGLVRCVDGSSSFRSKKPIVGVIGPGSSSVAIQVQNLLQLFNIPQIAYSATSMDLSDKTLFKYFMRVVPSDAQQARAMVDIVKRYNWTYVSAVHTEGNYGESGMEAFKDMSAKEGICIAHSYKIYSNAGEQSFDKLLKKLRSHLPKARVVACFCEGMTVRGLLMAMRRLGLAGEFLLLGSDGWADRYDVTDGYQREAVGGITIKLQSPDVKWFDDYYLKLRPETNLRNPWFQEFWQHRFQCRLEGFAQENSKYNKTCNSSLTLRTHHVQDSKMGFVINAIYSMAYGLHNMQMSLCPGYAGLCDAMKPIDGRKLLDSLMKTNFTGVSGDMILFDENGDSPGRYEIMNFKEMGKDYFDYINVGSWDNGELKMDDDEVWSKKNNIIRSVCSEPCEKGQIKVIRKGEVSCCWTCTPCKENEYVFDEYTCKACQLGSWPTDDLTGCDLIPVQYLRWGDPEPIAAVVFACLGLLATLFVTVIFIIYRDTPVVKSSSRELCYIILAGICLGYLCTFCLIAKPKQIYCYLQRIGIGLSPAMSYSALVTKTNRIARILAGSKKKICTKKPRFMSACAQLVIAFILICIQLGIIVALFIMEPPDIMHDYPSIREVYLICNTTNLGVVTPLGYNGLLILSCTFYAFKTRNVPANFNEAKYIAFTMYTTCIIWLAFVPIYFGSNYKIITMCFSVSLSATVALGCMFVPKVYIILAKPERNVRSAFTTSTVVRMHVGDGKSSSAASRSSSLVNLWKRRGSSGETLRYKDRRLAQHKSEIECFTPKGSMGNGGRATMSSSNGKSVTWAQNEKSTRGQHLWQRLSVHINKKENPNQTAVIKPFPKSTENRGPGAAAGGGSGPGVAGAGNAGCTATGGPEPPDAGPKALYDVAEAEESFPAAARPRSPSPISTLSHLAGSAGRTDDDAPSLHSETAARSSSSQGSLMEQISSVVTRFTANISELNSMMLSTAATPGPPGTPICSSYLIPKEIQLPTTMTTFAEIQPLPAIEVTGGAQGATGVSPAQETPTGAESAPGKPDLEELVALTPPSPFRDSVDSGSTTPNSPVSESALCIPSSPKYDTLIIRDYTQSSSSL
FLAG-mGluR1a (metabotropic glutamate receptor 1a) (P23385, residues 19-1199): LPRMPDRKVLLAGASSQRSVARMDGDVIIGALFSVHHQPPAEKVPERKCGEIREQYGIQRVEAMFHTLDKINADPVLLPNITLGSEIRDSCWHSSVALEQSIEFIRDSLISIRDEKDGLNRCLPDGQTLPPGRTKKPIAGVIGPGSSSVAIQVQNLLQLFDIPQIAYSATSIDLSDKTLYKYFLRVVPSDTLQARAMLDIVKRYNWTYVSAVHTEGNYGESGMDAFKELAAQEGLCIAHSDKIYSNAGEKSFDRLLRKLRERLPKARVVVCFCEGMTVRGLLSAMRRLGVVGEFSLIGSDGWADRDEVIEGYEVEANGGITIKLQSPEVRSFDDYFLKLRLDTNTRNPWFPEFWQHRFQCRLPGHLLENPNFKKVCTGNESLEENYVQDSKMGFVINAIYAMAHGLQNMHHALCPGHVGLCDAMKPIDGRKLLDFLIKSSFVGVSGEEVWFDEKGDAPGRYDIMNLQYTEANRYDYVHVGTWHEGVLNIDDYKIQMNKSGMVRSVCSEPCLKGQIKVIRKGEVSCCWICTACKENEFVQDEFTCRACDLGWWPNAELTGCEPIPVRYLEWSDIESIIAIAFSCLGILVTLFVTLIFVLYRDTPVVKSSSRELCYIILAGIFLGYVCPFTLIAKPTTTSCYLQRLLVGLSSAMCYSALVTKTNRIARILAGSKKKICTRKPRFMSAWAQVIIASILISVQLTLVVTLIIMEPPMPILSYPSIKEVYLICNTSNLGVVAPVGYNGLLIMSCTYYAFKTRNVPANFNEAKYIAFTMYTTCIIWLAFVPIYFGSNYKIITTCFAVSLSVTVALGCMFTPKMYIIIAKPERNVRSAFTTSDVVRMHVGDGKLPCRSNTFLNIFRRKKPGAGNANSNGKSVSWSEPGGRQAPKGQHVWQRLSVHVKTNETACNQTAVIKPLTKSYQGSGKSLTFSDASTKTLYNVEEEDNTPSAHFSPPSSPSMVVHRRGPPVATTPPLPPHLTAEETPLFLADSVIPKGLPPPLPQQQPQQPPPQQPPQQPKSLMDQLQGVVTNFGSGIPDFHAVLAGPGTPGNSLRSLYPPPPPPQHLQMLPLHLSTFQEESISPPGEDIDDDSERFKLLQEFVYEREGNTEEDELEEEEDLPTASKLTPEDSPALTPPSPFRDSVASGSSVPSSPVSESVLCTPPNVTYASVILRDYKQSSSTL
FLAG-mGluR1b (mGluR1b splice variant) (P23385, form named): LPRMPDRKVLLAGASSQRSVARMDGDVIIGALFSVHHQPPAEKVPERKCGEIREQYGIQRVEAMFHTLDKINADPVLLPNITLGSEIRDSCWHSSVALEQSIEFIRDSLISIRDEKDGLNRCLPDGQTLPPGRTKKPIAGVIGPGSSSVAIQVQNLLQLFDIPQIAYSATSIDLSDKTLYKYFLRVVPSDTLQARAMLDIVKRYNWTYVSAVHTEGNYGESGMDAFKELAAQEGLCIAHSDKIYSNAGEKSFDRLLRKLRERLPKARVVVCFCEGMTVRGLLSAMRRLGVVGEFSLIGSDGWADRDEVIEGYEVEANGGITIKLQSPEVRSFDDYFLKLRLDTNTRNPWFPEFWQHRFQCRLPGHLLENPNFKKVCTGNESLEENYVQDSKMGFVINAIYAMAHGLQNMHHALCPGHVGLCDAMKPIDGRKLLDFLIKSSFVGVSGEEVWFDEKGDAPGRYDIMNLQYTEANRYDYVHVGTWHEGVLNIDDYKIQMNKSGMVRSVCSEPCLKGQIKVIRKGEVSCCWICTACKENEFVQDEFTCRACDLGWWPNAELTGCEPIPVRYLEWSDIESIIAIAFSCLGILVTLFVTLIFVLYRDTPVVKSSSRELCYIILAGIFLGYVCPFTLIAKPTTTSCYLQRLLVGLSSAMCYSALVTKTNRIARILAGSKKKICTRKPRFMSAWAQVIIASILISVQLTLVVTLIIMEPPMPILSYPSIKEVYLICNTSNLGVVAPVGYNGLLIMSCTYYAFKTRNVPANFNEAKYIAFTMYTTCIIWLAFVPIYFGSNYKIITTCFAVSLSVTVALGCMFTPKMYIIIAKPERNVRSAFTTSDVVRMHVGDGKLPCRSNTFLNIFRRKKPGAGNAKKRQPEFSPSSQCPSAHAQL
UniProt P70600: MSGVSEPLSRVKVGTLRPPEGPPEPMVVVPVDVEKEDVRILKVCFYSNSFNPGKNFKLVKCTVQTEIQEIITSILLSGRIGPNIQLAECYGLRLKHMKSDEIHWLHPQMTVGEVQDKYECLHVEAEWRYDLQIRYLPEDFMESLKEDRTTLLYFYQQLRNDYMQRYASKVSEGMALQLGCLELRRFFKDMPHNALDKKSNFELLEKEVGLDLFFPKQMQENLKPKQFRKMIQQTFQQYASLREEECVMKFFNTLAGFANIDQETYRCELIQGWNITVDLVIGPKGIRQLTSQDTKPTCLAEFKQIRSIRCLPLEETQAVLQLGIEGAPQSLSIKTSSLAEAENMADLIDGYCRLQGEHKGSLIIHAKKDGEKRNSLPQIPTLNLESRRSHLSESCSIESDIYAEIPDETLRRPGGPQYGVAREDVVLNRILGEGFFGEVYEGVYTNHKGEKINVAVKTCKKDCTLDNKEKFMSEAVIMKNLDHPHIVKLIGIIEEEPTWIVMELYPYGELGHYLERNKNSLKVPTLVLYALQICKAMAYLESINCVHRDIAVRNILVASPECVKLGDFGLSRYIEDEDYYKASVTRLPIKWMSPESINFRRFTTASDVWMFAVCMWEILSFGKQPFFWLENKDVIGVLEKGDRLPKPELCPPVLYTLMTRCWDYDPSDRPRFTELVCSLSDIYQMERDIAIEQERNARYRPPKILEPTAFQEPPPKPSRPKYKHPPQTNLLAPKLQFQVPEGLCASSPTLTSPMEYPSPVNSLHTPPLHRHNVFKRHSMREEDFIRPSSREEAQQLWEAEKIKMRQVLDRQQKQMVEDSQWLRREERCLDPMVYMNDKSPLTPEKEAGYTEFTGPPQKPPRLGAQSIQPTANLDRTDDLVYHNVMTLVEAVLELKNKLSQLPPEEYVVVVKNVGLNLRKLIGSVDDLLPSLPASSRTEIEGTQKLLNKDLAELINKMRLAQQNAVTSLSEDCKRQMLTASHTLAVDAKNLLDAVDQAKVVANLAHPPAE
UniProt Q14289: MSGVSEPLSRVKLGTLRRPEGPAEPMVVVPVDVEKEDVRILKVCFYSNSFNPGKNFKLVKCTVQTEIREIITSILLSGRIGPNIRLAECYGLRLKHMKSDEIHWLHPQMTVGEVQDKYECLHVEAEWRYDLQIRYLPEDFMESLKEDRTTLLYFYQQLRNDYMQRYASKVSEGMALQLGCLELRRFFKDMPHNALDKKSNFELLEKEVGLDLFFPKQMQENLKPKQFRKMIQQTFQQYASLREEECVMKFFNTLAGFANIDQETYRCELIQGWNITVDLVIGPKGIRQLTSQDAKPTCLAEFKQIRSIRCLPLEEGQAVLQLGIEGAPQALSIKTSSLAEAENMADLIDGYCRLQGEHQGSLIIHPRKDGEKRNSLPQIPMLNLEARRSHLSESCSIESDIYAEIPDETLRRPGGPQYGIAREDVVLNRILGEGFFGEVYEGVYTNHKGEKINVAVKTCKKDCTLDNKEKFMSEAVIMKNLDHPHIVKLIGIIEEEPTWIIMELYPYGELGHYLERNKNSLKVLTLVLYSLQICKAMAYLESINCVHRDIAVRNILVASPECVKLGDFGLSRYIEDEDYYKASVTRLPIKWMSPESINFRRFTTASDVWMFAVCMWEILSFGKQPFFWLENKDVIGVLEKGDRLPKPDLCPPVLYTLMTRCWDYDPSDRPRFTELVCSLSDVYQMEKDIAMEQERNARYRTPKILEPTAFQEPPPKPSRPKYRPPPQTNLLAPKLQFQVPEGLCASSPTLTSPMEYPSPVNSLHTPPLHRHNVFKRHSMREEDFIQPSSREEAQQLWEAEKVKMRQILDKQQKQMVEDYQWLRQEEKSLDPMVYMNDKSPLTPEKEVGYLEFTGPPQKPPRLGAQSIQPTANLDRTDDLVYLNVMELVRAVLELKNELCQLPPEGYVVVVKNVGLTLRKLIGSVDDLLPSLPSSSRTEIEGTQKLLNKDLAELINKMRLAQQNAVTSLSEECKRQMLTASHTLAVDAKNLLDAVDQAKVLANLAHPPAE

Columns and labels:
[1] = target: mGluR5, endogenous in rat brain (rat (endogenous in rat brain)) (UniProt P31424); experiment: co-IP; adult rat whole brain lysate, 500-1000 ug supernatant protein; polyclonal anti-mGluR1a or anti-mGluR5a rabbit antibodies and protein G-Sepharose beads overnight at 4 C; blot for Pyk2
[2] = target: mGluR1, endogenous in rat brain (rat (endogenous in rat brain)) (UniProt P23385); experiment: as above
[3] = target: FLAG-mGluR1a (metabotropic glutamate receptor 1a) (UniProt P23385); experiment: co-IP; HEK293 cells transiently transfected; 500-1000 ug lysate protein; lysis buffer 25 mM HEPES pH 7.5, 300 mM NaCl, 1.5 mM MgCl2, 0.2 mM EDTA, 0.1% Triton X-100; FLAG-tagged mGluR1 immunoprecipitated with FLAG Sepharose beads overnight at 4 C; cells untreated or treated with 30 uM quisqualate (0-30 min); GDP-AlF4- treatment in Fig. 4C
[4] = target: FLAG-mGluR1b (mGluR1b splice variant) (UniProt P23385); experiment: as above

binding [1] | binding [2] | binding [3] | binding [4] | Substance
binds | binds | – | – | Pyk2, endogenous in rat brain (from UniProt P70600 1-1009) (enzyme)
– | – | binds | binds | HA-Pyk2 (proline-rich tyrosine kinase 2), expressed in HEK293 cells (from UniProt Q14289 1-1009) (enzyme)
